The assay addresses recombinant protein containing the Rho binding domain (RBD) of Rhotekin conjugated to GST (UniProt Q9BST9). Nature of the assay: pull-down.

These are yes or no findings as the source states them, for the method shown. In cells and extracts the contact can be indirect. A result given as binding can be weak or reduced; the word gives no strength.

Regarding “GFP-RhoC^R188S (from UniProt P08134 1-193)”, the binding result is on record as “binds”.

For “GFP-RhoC^R188A (from UniProt P08134 1-193)”, the binding entry is on record as “binds”.

As for RhoB (from UniProt P62745 1-196), the binding result is listed as “binds”.

As to RhoC (from UniProt P08134 1-193), the binding entry is listed as “binds”.

With RhoA (from UniProt P61586 1-193), the binding result is “binds”.

For the substance GFP-RhoC (from UniProt P08134 1-193), the binding entry is given as “binds”.

The record behind these values is publication doi:10.1101/2024.05.17.594667.
